Here are results for 6 molecules from patent US20260250338A1.

Sequences of proteins named here, by UniProt entry; tags and fusion partners are left off. Residues count along the entry.
UniProt P08637, residues 17-208: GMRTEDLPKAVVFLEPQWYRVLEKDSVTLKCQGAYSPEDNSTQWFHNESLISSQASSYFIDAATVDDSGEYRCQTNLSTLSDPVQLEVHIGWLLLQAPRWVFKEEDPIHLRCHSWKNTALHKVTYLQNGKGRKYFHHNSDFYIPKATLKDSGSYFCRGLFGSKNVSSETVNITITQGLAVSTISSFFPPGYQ

For experiment [1], the target named is human CD16a (hCD16a), biotinylated recombinant extracellular domain used in the crude extract HTRF screen (CD16aV and/or CD16aF) (human) (UniProt P08637). As to the kind of experiment: crude extract HTRF on recombinant CD16a target.
Experiment [2] shares this target. Put plainly: crude cell extract HTRF, 4 nM biotinylated target, anti-strep-Tb donor and anti-Flag-D2 acceptor. In general terms: TR-FRET usually uses a lanthanide donor and a delayed reading to cut background.

No constants are given. Whether binding was seen depends on the method and setting. Some binding calls cover weakened binding; strength is not graded here.

B1: DARPin #2 (SEQ ID NO: 2), clone as screened in crude extract HTRF (designed binder)
chain: DLGQKLLRAAKKGQDDEVRELLKAGADVNAKDEQGWTPLHIAAWKGHLEIVEVLLKAGADVNAKDVFDWTPLHVAAHFGHLEIVEVLLKAGADVNAQDRAGETPADLAAQAGHEDIAEVLQKAA
As for B1, the binding result in experiment [1] and in experiment [2] was “binds” throughout.

B2: DARPin #5 (SEQ ID NO: 5), clone as screened in crude extract HTRF (designed binder)
chain: DLGAKLLRAAKKGQDDEVRELLKAGADVNAKDELGFTPLHVAAEEGHLEIVEVLLKAGADVNAKDSWGATPLHVAAWVGHLEIVEVLLKAGADVNAQDQEGQTPADLAAEAGHEDIAEVLQKAA
Turning to B2, the binding result in experiment [1] and in experiment [2] was “binds” each time.

B3: DARPin #4 (SEQ ID NO: 4), clone as screened in crude extract HTRF (designed binder)
chain: DLGEKLLLAAALGQDDEVRELLKAGADVNAKDVQGSTPLHLAAVEGHLEIVEVLLKAGADVNAKDQWGQTPLHVAAIWGHLEIVEVLLKAGADVNAQDELGKTPADLVALQGHEDIAEVLQKAA
With B3, the binding result in experiment [1] and in experiment [2] was “binds” each time.

B4: DARPin #3 (SEQ ID NO: 3), clone as screened in crude extract HTRF (designed binder)
chain: DLGKKLLQAARAGQLDEVRELLKAGADVNAKDEQGRTPLHIAAASGHLEIVEVLLKAGADVNAKDWFGITPLHIAAWWGHLEIVEVLLKAGADVNAKDQEGRTPLHIAAAIGHLEIVEVLLKAGADVNAQDKSGKTPADLAARAGHQDIAEVLQKAA
On to B4, for which the binding entry in experiment [1] and in experiment [2] was “binds” in each case.

B5: DARPin #1 (SEQ ID NO: 1), clone as screened in crude extract HTRF (designed binder)
chain: DLGKKLLQAARAGQLDEVRELLKAGADVNAKDWSGFTPLHIAAVQGHLEIVEVLLKAGADVNAKDHSGWTPLHVAAFSGHLEIVEVLLKAGADVNAKDATGQTPLHLAARTGHLEIVEVLLKAGADVNAQDKSGKTPADLAARAGHQDIAEVLQKAA
For B5, the binding result in experiment [1] and in experiment [2] was “binds” throughout.

B6: DARPin #6 (SEQ ID NO: 6), clone as screened in crude extract HTRF (designed binder)
chain: DLGKKLLEAAEEGQDDEVRELLKAGADVNAKDEWGSTPLHIAAWVGHLEIVEVLLKAGADVNAKDSLGATPLHLAAEAGHLEIVEVLLKAGADVNAQDLKGKTPADLAALEGHEDIAEVLQKAA
Regarding B6, the binding result in experiment [1] and in experiment [2] was “binds” each time.
